42 sequences from paper PMC7819943, “Rice protein-binding microarrays: a tool to detect cis-acting elements near promoter regions in rice” can be followed below.

This is one part of the list.

For this test, the target named is T1, OsSMF1 (Oryza sativa, UniProt Q6ZLB0 1-436).
T1 sequence: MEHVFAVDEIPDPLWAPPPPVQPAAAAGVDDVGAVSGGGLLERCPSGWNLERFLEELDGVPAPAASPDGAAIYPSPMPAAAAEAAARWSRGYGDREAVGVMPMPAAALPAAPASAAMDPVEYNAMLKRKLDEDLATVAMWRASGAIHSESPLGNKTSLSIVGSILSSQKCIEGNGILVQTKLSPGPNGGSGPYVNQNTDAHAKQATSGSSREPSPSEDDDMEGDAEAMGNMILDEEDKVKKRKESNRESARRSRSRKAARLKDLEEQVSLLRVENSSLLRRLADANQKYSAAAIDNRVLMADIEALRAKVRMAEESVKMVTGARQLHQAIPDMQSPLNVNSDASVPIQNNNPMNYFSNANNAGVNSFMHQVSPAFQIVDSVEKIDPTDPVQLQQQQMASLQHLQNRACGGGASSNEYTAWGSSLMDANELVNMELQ
The test is described as follows: protein-binding microarray (RPBM); PBS, 2% BSA, 51.3 ng/ul salmon testes DNA, 50 uM zinc acetate, 200 nM TF, 25 C, 1 h; high values mean tight binding. The note with it: protein: recombinant; tags: N-terminal polyhistidine and DsRed monomer fusion (pET32a); chain copies: 2; label: CyDye5-dUTP incorporated in the synthesized complementary strand; 3' TTTTT single-stranded linker to array surface; dsDNA, one strand shown. The procedure, abridged: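 Per-feature fluorescence intensity (arbitrary units), read on an Axon 4000B scanner, is the binding signal. Transcription factors carrying an N-terminal polyhistidine tag and DsRed fusion were expressed in E. coli BL21-CodonPlus and purified on Ni–NTA. A custom Agilent array, made double-stranded by primer extension with Cy5-dUTP and blocked with 2% BSA, was incubated with 200 nM protein in PBS, 2% BSA, salmon testes DNA and 50 µM zinc acetate at 25 °C for 1 h and then washed.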
In the case of “GGAGGCCGGAGCAGTTGGTCGCCACCGTCACGCGCGTTCCCGGAGTCACCTAGTGCAG”, the binding signal is 4240 fluorescence intensity (a.u.).

In the case of “AAATTAACCCTTCACACACGTAAAATGAAGTAATGGATTACGGAGTCACCTAGTGCAG”, the binding signal was 3680 fluorescence intensity (a.u.).

As for “CATCCACAGCCACATCCACATCCACCGAGCAGGAATCCAACGGAGTCACCTAGTGCAG”, the binding signal was 3700 fluorescence intensity (a.u.).

In the case of “GGAAGGAGAGGGGAAGGGAGGAGCAGGTGGCGACGGTGCGCGGAGTCACCTAGTGCAG”, the binding signal is 3910 fluorescence intensity (a.u.).

“TGTACGAGTTGGATTTTAAGTTCGTTTGCTTTTGAAAATACGGAGTCACCTAGTGCAG”: the binding signal was 3390 fluorescence intensity (a.u.).

Take “TCCCGCTGTTTAGCACTAAGCACCAAACGAAACCCAAGAACGGAGTCACCTAGTGCAG”: the binding signal is 28500 fluorescence intensity (a.u.).

“AATGAGTGTGTCCGCCCCTGGCCTGACACGATGGGTAATTCGGAGTCACCTAGTGCAG”: the binding signal is 3500 fluorescence intensity (a.u.).

Consider “CCATCAACGCCCTCTCCGTCCTCCTCGCCGCCGCCATCGCCGGAGTCACCTAGTGCAG”, for which the binding signal is 4300 fluorescence intensity (a.u.).

Consider “CGCACCGGGTCCAGTAGACCGCAAAACCCACACCCCATCGCGGAGTCACCTAGTGCAG”, for which the binding signal was 5980 fluorescence intensity (a.u.).

“TTCTCATTTTATTTAATTTAAAAGTAATTTATTACATGTTCGGAGTCACCTAGTGCAG”: the binding signal is 19000 fluorescence intensity (a.u.).

In the case of “AGGGGATCACAGACTCACAGTGACGTGCTCCTGATGCAAACGGAGTCACCTAGTGCAG”, the binding signal was 4050 fluorescence intensity (a.u.).

For “GTCGTGTCGGCTGCCGATTACACTATCGGCAGTGCAGCCGCGGAGTCACCTAGTGCAG”, the binding signal was 4270 fluorescence intensity (a.u.).

For “ATAGTATGATACAATATGACGTCACAACAAATTGGCATTGCGGAGTCACCTAGTGCAG”, the binding signal is 16900 fluorescence intensity (a.u.).

In the case of “CGTCCGTGAGCACTGCGGCGAGCATCACCAGGATGAGGCCCGGAGTCACCTAGTGCAG”, the binding signal was 4480 fluorescence intensity (a.u.).

For “GGTGGTTTGACTTACCTGTCATGCCGCCGTTTTGGCCATTCGGAGTCACCTAGTGCAG”, the binding signal is 4170 fluorescence intensity (a.u.).

Take “GGTTTAGGCTGCTCCACAACTCTACTTCAAAACTCAACTCCGGAGTCACCTAGTGCAG”: the binding signal was 24700 fluorescence intensity (a.u.).

With “AGTCAATTCGGTCACCAAGACACGTGTACTACGCGCCGCACGGAGTCACCTAGTGCAG”, the binding signal was 8870 fluorescence intensity (a.u.).

With “ATGTGGATATGTCACGTCATCCTCACATGATCCCCATTATCGGAGTCACCTAGTGCAG”, the binding signal is 14900 fluorescence intensity (a.u.).

On to “TGGCCCAACACATCAACGTTACATCACGGGCTTTAACGTTCGGAGTCACCTAGTGCAG”, for which the binding signal is 3290 fluorescence intensity (a.u.).

For “TAAACCATAATCACATTGGGCAAAACGCATAGTCGAGTCACGGAGTCACCTAGTGCAG”, the binding signal was 4540 fluorescence intensity (a.u.).

“TCGTTTTGCCACCGTGTATTCTACTCAACTCTCTACTGCTCGGAGTCACCTAGTGCAG”: the binding signal is 5200 fluorescence intensity (a.u.).

For the sequence “CCGCTTCACCTGGTCGATGACGTACCACACCTTGAGCCTGCGGAGTCACCTAGTGCAG”, the binding signal was 5710 fluorescence intensity (a.u.).

For “TTTATCTTCTATATTATATTGAAATCCAAATCATCCAGTTCGGAGTCACCTAGTGCAG”, the binding signal is 3220 fluorescence intensity (a.u.).

For “CAGGGTGGCAGGAGAGGTAGGGGCTTGCTATGGCAGTCAGCGGAGTCACCTAGTGCAG”, the binding signal was 3250 fluorescence intensity (a.u.).

With “ACACTAACTGCCGAGATGTCGATCCCAATTCCACGTGTGGCGGAGTCACCTAGTGCAG”, the binding signal was 8710 fluorescence intensity (a.u.).

Regarding “CCGCTACCATCCACGTCAGCACGACGCCATCCATAATCGGCGGAGTCACCTAGTGCAG”, the binding signal is 22900 fluorescence intensity (a.u.).

“ATCCCGTAGATCTCGTCATCTACACCACGCTATTCGTATCCGGAGTCACCTAGTGCAG”: the binding signal was 4110 fluorescence intensity (a.u.).

Regarding “TCGCCGGCGGCCCGTCAGGCCGAAAGCGCCACGTGGGCGGCGGAGTCACCTAGTGCAG”, the binding signal was 6460 fluorescence intensity (a.u.).

Regarding “TTACCGGGCGTTGCTGAGAGGATGTATCAACTCTAGCAATCGGAGTCACCTAGTGCAG”, the binding signal is 11200 fluorescence intensity (a.u.).

With “GCGGTTTATATATACATACACACACACATAATCCGTGCTGCGGAGTCACCTAGTGCAG”, the binding signal is 3270 fluorescence intensity (a.u.).

With “CGCTCTGCCGTCCGGCTCTCCGCGCGATGCTACGTGGCCGCGGAGTCACCTAGTGCAG”, the binding signal is 5480 fluorescence intensity (a.u.).

For the sequence “CTTGGTGGTCAGAGTGACAAACATTCTATATCCTTTGTCTCGGAGTCACCTAGTGCAG”, the binding signal is 36600 fluorescence intensity (a.u.).

With “TTATTAGCAACCGATAAGTGTTTCATCAGCAATTATATATCGGAGTCACCTAGTGCAG”, the binding signal is 3480 fluorescence intensity (a.u.).

Consider “AACAGAAGAGCCCACCTAGTCCACCTTGTTTCTTTCTCTCCGGAGTCACCTAGTGCAG”, for which the binding signal was 4180 fluorescence intensity (a.u.).

On to “TGAATGGATAGACGATCGAGTAGATGACACGTACGGCTGCCGGAGTCACCTAGTGCAG”, for which the binding signal is 5360 fluorescence intensity (a.u.).

For “ACTGGTTTCGTAAGTTGGGAGACCCGTCATACCTGGTTTTCGGAGTCACCTAGTGCAG”, the binding signal is 4250 fluorescence intensity (a.u.).

With “AGTTAGATCCGTGTCACATTTCATGTTTTGTCCTCATTCTCGGAGTCACCTAGTGCAG”, the binding signal is 3460 fluorescence intensity (a.u.).

With “TAGCTAGCTTGCGAGTGACACGTCACCCACACGCACGCACCGGAGTCACCTAGTGCAG”, the binding signal was 24000 fluorescence intensity (a.u.).

With “ATATAGCATGTCAAGATATTTGGGTGATATGTACTATGTACGGAGTCACCTAGTGCAG”, the binding signal is 4580 fluorescence intensity (a.u.).

As for “CCCCTCTTATAACGCGTCGCCTTCCCTTCGCCATGTCCGTCGGAGTCACCTAGTGCAG”, the binding signal was 18400 fluorescence intensity (a.u.).

As to “ACAGTTTGTTAGCCAGCCATTTGATTGTGACTTGCCATATCGGAGTCACCTAGTGCAG”, the binding signal was 3410 fluorescence intensity (a.u.).

Regarding “GTTCATGGCGGCGTCGAACGTGTCCCTGATGTAGCCGACGCGGAGTCACCTAGTGCAG”, the binding signal was 3270 fluorescence intensity (a.u.).
